Values from PubChem BioAssay AID504808 (Drosophila RNAi Screening Center, 2011)

Test: 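Genes whose loss lifts activity of an E2F-responsive reporter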 (primary screen)
System: Drosophila S2 cells
Reagents: long dsRNA against Drosophila genes
Detection: 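Firefly luciferase driven by E2F sites, normalised to Renilla luciferase on the same minimal promoter, measured by plate reader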
Scale: E2F firefly: higher = more E2F reporter activity; Renilla normaliser: higher = more normaliser reporter signal
Hit rule: 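Called active if the normalised E2F reporter went up by over 50%; the cutoff is arbitrary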
The deposit covers about 21,000 reagents; below is a random part of those that have a named target and a result. Over the whole deposit, 18 (0.084%) were called active. 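Raw counts without plate normalisation, one of two replicates; the ratio scores behind the calls were not deposited.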 Not given: the amount of reagent, the time to read-out.

Depletion of miple1 (midkine and pleiotrophin 1) gave: E2F firefly, rep 1 = 1.02e5; Renilla normaliser, rep 1 = 3890; inactive.
After knock-down of Odj (Oddjob) the results were E2F firefly, rep 1 = 58622; Renilla normaliser, rep 1 = 3029; inactive.
For Vamp7 (Vesicle-associated membrane protein 7), the entry reads E2F firefly, rep 1 = 1.38e5; Renilla normaliser, rep 1 = 4286; inactive.
CG15753 (retired record) scored E2F firefly, rep 1 = 46811; Renilla normaliser, rep 1 = 3611; inactive.
Knock-down of MED11 (Mediator complex subunit 11) resulted in: E2F firefly, rep 1 = 72137; Renilla normaliser, rep 1 = 6506; inactive.
With knock-down of Cln3, the screen gave E2F firefly, rep 1 = 1.51e5; Renilla normaliser, rep 1 = 7788; inactive.
For CG34028 the deposit lists E2F firefly, rep 1 = 81820; Renilla normaliser, rep 1 = 2635; inactive.

2 consecutive entries from above:
Odj (Oddjob): E2F firefly, rep 1 = 58622; Renilla normaliser, rep 1 = 3029; outcome = inactive
Vamp7 (Vesicle-associated membrane protein 7): E2F firefly, rep 1 = 1.38e5; Renilla normaliser, rep 1 = 4286; outcome = inactive

Additional reagents:
For Pak3, the entry reads E2F firefly, rep 1 = 68447; Renilla normaliser, rep 1 = 3352; inactive.
Cyt-c-p (Cytochrome c proximal) showed E2F firefly, rep 1 = 1.02e5; Renilla normaliser, rep 1 = 4606; inactive.
Depletion of CG5877 came out at: E2F firefly, rep 1 = 8123; Renilla normaliser, rep 1 = 768; inactive.
For Kat60 (Katanin 60), the values are E2F firefly, rep 1 = 1.25e5; Renilla normaliser, rep 1 = 5574; inactive.
With knock-down of rhi (rhino), the record shows E2F firefly, rep 1 = 1.32e5; Renilla normaliser, rep 1 = 4686; inactive.
